Reference: US20070264229A1, “Peptides for Treatment of Autoimmune Disease” (priority 2004, published 2007)
Not every detail of the peptide structures is certain; ends, links or a residue may be inferred. Some entries repeat one wording, which the source may state once for all of them.

Assays:
[1] = system: EAE in SJL/J mice; conditions: co-immunized with PLP139-151, FIG. 5B
[2] = system: PLP139-151 specific cell line; experiment: Cross-reactivity with PLP139-151 specific cell line; format: cell-based, mouse; conditions: FIG. 3B
Protocol: The proliferative responses were measured as CPM after pulsing with ^3[H] thymidine.

| SMILES | mean clinical score [1] | severity of EAE (in words) [1] | response of PLP139-151 specific cell line (cross reactivity) [2] |
| --- | --- | --- | --- |
| C[C@H](NC(=O)[C@@H]1CCCN1C(=O)[C@H](C)NC(=O)[C@H](C)NC(=O)[C@H](C)NC(=O)[C@H](C)NC(=O)[C@H](CCCCN)NC(=O)[C@H](Cc1ccc(O)cc1)NC(=O)[C@H](C)NC(=O)[C@H](CCC(=O)O)NC(=O)[C@H](Cc1ccccc1)NC(=O)[C@H](CCCCN)NC(=O)[C@@H]1CCCN1C(=O)[C@H](CCCCN)NC(=O)[C@@H](N)CCC(=O)O)C(=O)O [J3] | approximately 1 | only a mild disease | Lack of cross reactivity |
| CC(C)[C@H](NC(=O)[C@H](CCCCN)NC(=O)[C@@H]1CCCN1C(=O)[C@H](CCCCN)NC(=O)[C@@H](N)CCC(=O)O)C(=O)N[C@@H](CCC(=O)O)C(=O)N[C@@H](C)C(=O)N[C@@H](Cc1ccc(O)cc1)C(=O)N[C@@H](CCCCN)C(=O)N[C@@H](C)C(=O)N[C@@H](C)C(=O)N[C@@H](C)C(=O)N[C@@H](C)C(=O)N1CCC[C@H]1C(=O)N[C@@H](C)C(=O)O [J5] | approximately 1 | only a mild disease | Lack of cross reactivity |
| C[C@H](NC(=O)[C@@H]1CCCN1C(=O)[C@H](C)NC(=O)[C@H](C)NC(=O)[C@H](C)NC(=O)[C@H](C)NC(=O)[C@H](CCCCN)NC(=O)[C@H](Cc1ccc(O)cc1)NC(=O)[C@H](C)NC(=O)[C@H](CCC(=O)O)NC(=O)[C@H](Cc1ccc(O)cc1)NC(=O)[C@H](CCCCN)NC(=O)[C@@H]1CCCN1C(=O)[C@H](CCCCN)NC(=O)[C@@H](N)CCC(=O)O)C(=O)O [J2] | approximately 1 | only a mild disease | Lack of cross reactivity |
